Some of these results come from one statement about several compounds together.
How the values were obtained:
[1] = pH-stat fluorometric transport assay in HPTS-loaded liposomes (chloride release); type: biochemical; settings: LUVs of 100 nm; NaCl extra- and intravesicular buffers
[2] = Liposome membrane potential assay with safranin O (Na2SO4 inside, NaCl outside); type: biochemical; settings: EYPC liposomes containing Na2SO4 in isotonic NaCl

Structure (SMILES) | chloride release / exchange between extra- and intravesicular electrolytes [1] | fluorescence intensity of safranin O (membrane potential of liposomes) [2]
CC(C)C[C@@H](ONC(=O)c1cccc(C(=O)NO[C@H](CC(C)C)C(=O)OC(C)(C)C)c1)C(=O)OC(C)(C)C [Example 1] | can also mediate chloride transport across lipid bilayers of chloride-containing liposomes with different efficiencies | –
CCCCCCCCCCNC(=O)[C@@H](CC(C)C)ONC(=O)c1cccc(C(=O)NO[C@H](CC(C)C)C(=O)NCCCCCCCCCC)c1 [Example 3] | can also mediate chloride transport across lipid bilayers of chloride-containing liposomes with different efficiencies | –
CCCCCCCCCCCCCCNC(=O)[C@@H](CC(C)C)ONC(=O)c1cccc(C(=O)NO[C@H](CC(C)C)C(=O)NCCCCCCCCCCCCCC)c1 [Example 4] | can also mediate chloride transport across lipid bilayers of chloride-containing liposomes with different efficiencies | –
CCCCCCCCCCCCCCCCCCNC(=O)[C@@H](CC(C)C)ONC(=O)c1cccc(C(=O)NO[C@H](CC(C)C)C(=O)NCCCCCCCCCCCCCCCCCC)c1 [Example 5] | can also mediate chloride transport across lipid bilayers of chloride-containing liposomes with different efficiencies | –
CC(C)CNC(=O)[C@@H](CC(C)C)ONC(=O)c1cccc(C(=O)NO[C@H](CC(C)C)C(=O)NCC(C)C)n1 [Example 7] | can also mediate chloride transport across lipid bilayers of chloride-containing liposomes with different efficiencies | –
CC(C)CNC(=O)[C@H](CC(C)C)NC(=O)c1cccc(C(=O)N[C@@H](CC(C)C)C(=O)NCC(C)C)c1 [Example 8] | can also mediate chloride transport across lipid bilayers of chloride-containing liposomes with different efficiencies | –
CC(C)CNC(=O)[C@H](CC(C)C)OC(=O)c1cccc(C(=O)O[C@@H](CC(C)C)C(=O)NCC(C)C)c1 [Example 9] | can also mediate chloride transport across lipid bilayers of chloride-containing liposomes with different efficiencies | –
CC(C)CNC(=O)[C@@H](CC(C)C)ONC(=O)c1ccc(C(=O)NO[C@H](CC(C)C)C(=O)NCC(C)C)cc1 [Example 10] | can also mediate chloride transport across lipid bilayers of chloride-containing liposomes with different efficiencies | can also modulate membrane potentials of liposomes with different efficiencies
CC(C)CNC(=O)[C@@H](CC(C)C)ONC(=O)c1cc(C(=O)NO[C@H](CC(C)C)C(=O)NCC(C)C)cc(C(=O)NO[C@H](CC(C)C)C(=O)NCC(C)C)c1 [Example 11] | can also mediate chloride transport across lipid bilayers of chloride-containing liposomes with different efficiencies | can also modulate membrane potentials of liposomes with different efficiencies
CC(C)CNC(=O)[C@@H](CC(C)C)ONC(=O)/C=C/CC(=O)NO[C@H](CC(C)C)C(=O)NCC(C)C [Example 12] | can also mediate chloride transport across lipid bilayers of chloride-containing liposomes with different efficiencies | can also modulate membrane potentials of liposomes with different efficiencies
CC(C)CNC(=O)[C@@H](CC(C)C)ONC(=O)CCCC(=O)NO[C@H](CC(C)C)C(=O)NCC(C)C [Example 13] | can also mediate chloride transport across lipid bilayers of chloride-containing liposomes with different efficiencies | can also modulate membrane potentials of liposomes with different efficiencies
CC(C)CNC(=O)[C@@H](CC(C)C)ONC(=O)CCCCC(=O)NO[C@H](CC(C)C)C(=O)NCC(C)C [Example 14] | can also mediate chloride transport across lipid bilayers of chloride-containing liposomes with different efficiencies | can also modulate membrane potentials of liposomes with different efficiencies
CC(C)CC(=O)NO[C@H](CC(C)C)C(=O)Nc1ccccc1 [Example 15] | can also mediate chloride transport across lipid bilayers of chloride-containing liposomes with different efficiencies | can also modulate membrane potentials of liposomes with different efficiencies
CC(C)CC(=O)NO[C@H](CC(C)C)C(=O)Nc1cccc(NC(=O)[C@@H](CC(C)C)ONC(=O)CC(C)C)c1 [Example 16] | can also mediate chloride transport across lipid bilayers of chloride-containing liposomes with different efficiencies | can also modulate membrane potentials of liposomes with different efficiencies
CC(C)CC(=O)NO[C@H](CC(C)C)C(=O)Nc1ccc(NC(=O)[C@@H](CC(C)C)ONC(=O)CC(C)C)cc1 [Example 17] | can also mediate chloride transport across lipid bilayers of chloride-containing liposomes with different efficiencies | can also modulate membrane potentials of liposomes with different efficiencies
CC(C)CC(=O)NO[C@H](CC(C)C)C(=O)Nc1ccc(-c2ccc(NC(=O)[C@@H](CC(C)C)ONC(=O)CC(C)C)cc2)cc1 [Example 18] | can also mediate chloride transport across lipid bilayers of chloride-containing liposomes with different efficiencies | can also modulate membrane potentials of liposomes with different efficiencies
CC(C)CC(=O)N[C@@H](CC(C)C)C(=O)Nc1ccccc1 [Example 19] | can also mediate chloride transport across lipid bilayers of chloride-containing liposomes with different efficiencies | can also modulate membrane potentials of liposomes with different efficiencies
CC(C)CC(=O)N[C@@H](CC(C)C)C(=O)Nc1cccc(NC(=O)[C@H](CC(C)C)NC(=O)CC(C)C)c1 [Example 20] | can also mediate chloride transport across lipid bilayers of chloride-containing liposomes with different efficiencies | can also modulate membrane potentials of liposomes with different efficiencies
CC(C)CC(=O)N[C@@H](CC(C)C)C(=O)Nc1ccc(NC(=O)[C@H](CC(C)C)NC(=O)CC(C)C)cc1 [Example 21] | can also mediate chloride transport across lipid bilayers of chloride-containing liposomes with different efficiencies | can also modulate membrane potentials of liposomes with different efficiencies
CC(C)CC(=O)N[C@@H](CC(C)C)C(=O)Nc1ccc(-c2ccc(NC(=O)[C@H](CC(C)C)NC(=O)CC(C)C)cc2)cc1 [Example 22] | can also mediate chloride transport across lipid bilayers of chloride-containing liposomes with different efficiencies | can also modulate membrane potentials of liposomes with different efficiencies

Source: patent US9610263B2, “Method of modulating membrane potential of a cell” (VERSITECH LIMITED, priority 2007, dated 2017)
